Results are given in words; binding and its absence hold for the method and conditions named. In cells and extracts the contact can be indirect. A yes stands for co-enrichment or nearness to the bait. Other partners may have been found. No binding means not detected with the bait.
B1: RTCB (endogenous, HEK293T) (enzyme, UniProt Q9Y3I0 1-505)
chain: MSRSYNDELQFLEKINKNCWRIKKGFVPNMQVEGVFYVNDALEKLMFEELRNACRGGGVGGFLPAMKQIGNVAALPGIVHRSIGLPDVHSGYGFAIGNMAAFDMNDPEAVVSPGGVGFDINCGVRLLRTNLDESDVQPVKEQLAQAMFDHIPVGVGSKGVIPMNAKDLEEALEMGVDWSLREGYAWAEDKEHCEEYGRMLQADPNKVSARAKKRGLPQLGTLGAGNHYAEIQVVDEIFNEYAAKKMGIDHKGQVCVMIHSGSRGLGHQVATDALVAMEKAMKRDKIIVNDRQLACARIASPEGQDYLKGMAAAGNYAWVNRSSMTFLTRQAFAKVFNTTPDDLDLHVIYDVSHNIAKVEQHVVDGKERTLLVHRKGSTRAFPPHHPLIAVDYQLTGQPVLIGGTMGTCSYVLTGTEQGMTETFGTTCHGAGRALSRAKSRRNLDFQDVLDKLADMGIAIRVASPKLVMEEAPESYKNVTDVVNTCHDAGISKKAIKLRPIAVIKG
B2: DDX1 (endogenous, HEK293T) (enzyme, UniProt Q92499 1-740)
chain: MAAFSEMGVMPEIAQAVEEMDWLLPTDIQAESIPLILGGGDVLMAAETGSGKTGAFSIPVIQIVYETLKDQQEGKKGKTTIKTGASVLNKWQMNPYDRGSAFAIGSDGLCCQSREVKEWHGCRATKGLMKGKHYYEVSCHDQGLCRVGWSTMQASLDLGTDKFGFGFGGTGKKSHNKQFDNYGEEFTMHDTIGCYLDIDKGHVKFSKNGKDLGLAFEIPPHMKNQALFPACVLKNAELKFNFGEEEFKFPPKDGFVALSKAPDGYIVKSQHSGNAQVTQTKFLPNAPKALIVEPSRELAEQTLNNIKQFKKYIDNPKLRELLIIGGVAARDQLSVLENGVDIVVGTPGRLDDLVSTGKLNLSQVRFLVLDEADGLLSQGYSDFINRMHNQIPQVTSDGKRLQVIVCSATLHSFDVKKLSEKIMHFPTWVDLKGEDSVPDTVHHVVVPVNPKTDRLWERLGKSHIRTDDVHAKDNTRPGANSPEMWSEAIKILKGEYAVRAIKEHKMDQAIIFCRTKIDCDNLEQYFIQQGGGPDKKGHQFSCVCLHGDRKPHERKQNLERFKKGDVRFLICTDVAARGIDIHGVPYVINVTLPDEKQNYVHRIGRVGRAERMGLAISLVATEKEKVWYHVCSSRGKGCYNTRLKEDGGCTIWYNEMQLLSEIEEHLNCTISQVEPDIKVPVDEFDGKVTYGQKRAAGGGSYKGHVDILAPTVQELAALEKEAQTSFLHLGYLPNQLFRTF
B3: CGI-99 (endogenous, HEK293T) (protein, UniProt Q9Y224 1-244)
chain: MFRRKLTALDYHNPAGFNCKDETEFRNFIVWLEDQKIRHYKIEDRGNLRNIHSSDWPKFFEKYLRDVNCPFKIQDRQEAIDWLLGLAVRLEYGDNAEKYKDLVPDNSKTADNATKNAEPLINLDVNNPDFKAGVMALANLLQIQRHDDYLVMLKAIRILVQERLTQDAVAKANQTKEGLPVALDKHILGFDTGDAVLNEAAQILRLLHIEELRELQTKINEAIVAVQAIIADPKTDHRLGKVGR

Chains of the proteins cited; added tags and fusions are not shown.
UniProt Q17RN3: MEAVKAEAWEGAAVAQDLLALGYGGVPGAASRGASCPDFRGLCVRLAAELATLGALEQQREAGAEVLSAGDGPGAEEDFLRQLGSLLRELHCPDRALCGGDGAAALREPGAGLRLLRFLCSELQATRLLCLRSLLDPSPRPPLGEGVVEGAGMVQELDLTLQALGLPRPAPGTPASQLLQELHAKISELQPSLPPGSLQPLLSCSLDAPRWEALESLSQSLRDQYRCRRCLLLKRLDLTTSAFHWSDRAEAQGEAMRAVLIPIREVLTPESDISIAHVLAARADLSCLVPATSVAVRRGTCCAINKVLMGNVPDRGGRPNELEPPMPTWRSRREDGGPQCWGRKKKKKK
UniProt Q9BVC5: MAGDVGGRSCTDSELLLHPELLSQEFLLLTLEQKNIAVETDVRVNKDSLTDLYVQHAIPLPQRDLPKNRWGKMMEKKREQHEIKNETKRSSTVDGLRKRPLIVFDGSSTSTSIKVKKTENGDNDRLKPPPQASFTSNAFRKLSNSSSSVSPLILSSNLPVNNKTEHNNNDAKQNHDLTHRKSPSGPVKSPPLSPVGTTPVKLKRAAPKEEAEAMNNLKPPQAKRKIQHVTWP

What was measured:
[1] = biological target: 3xFLAG-tagged FAM98C (HEK293T) (human) (UniProt Q17RN3); test: affinity purification with mass spectrometry; N-terminally 3xFLAG-tagged FAM98A/B/C overexpressed in HEK293T, anti-FLAG M2 resin, 150 mM KCl, 20 mM HEPES-KOH pH 7.8, 0.1% Tween-20; 3xFLAG-mEGFP as negative control; triplicates
[2] = biological target: 3xFLAG-tagged FAM98A (HEK293T) (human) (UniProt Q8NCA5); test: as above

Row | Molecule | binding [1] | binding [2]
1 | Ashwin (endogenous, HEK293T) (from UniProt Q9BVC5 1-232) | no binding | no binding
2 | B1 | binds | binds
3 | B2 | binds | binds
4 | B3 | binds | binds

From PMC13586351
